Reference: PubChem BioAssay AID504327 (National Center for Advancing Translational Sciences (NCATS), 2011)
The whole screen tested about 390,000 compounds, of which about 820 (0.21%) were called active. Inconclusive means that the source gave no clear call. Such entries were picked first, then a sample of the others. The call rests on the fitted dose curve; in most records, active means well fitted inhibition curve with a large enough effect; inconclusive means small, poorly fitted or top-dose-only effect, or another doubt; inactive means no such curve, though single readings can be large or run the other way. A potency beside an inconclusive call is a rough fit, not a confirmed value.
On the % scale 0 is the no-effect control and ±100 the full control effect; potency means the concentration at half of the fitted maximal effect.

Amino acid sequences for entries named in this document (tags omitted).
UniProt Q92830, whole entry, looked up: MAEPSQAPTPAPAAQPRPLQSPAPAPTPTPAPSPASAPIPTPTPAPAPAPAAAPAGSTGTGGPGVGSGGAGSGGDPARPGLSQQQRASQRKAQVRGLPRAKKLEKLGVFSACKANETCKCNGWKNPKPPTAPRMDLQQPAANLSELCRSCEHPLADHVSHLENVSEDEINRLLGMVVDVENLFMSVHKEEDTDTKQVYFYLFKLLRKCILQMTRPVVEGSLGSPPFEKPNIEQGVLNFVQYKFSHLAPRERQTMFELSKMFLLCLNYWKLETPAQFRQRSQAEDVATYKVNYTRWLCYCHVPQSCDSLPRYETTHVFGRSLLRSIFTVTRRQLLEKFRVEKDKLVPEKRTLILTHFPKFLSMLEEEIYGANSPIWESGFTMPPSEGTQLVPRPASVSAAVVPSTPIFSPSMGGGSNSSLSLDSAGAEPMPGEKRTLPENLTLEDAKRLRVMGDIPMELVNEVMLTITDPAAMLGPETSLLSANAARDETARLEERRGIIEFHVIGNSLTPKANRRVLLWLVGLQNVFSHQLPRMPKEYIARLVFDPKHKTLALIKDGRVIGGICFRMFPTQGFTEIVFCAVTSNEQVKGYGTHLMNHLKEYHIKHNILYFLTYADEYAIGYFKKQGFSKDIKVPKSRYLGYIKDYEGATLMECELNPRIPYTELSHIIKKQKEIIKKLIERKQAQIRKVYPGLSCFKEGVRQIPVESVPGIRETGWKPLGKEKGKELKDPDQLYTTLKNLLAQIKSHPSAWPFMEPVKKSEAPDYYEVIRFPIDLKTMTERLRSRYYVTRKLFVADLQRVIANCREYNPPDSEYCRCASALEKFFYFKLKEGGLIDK

What follows are compounds tested against Histone acetyltransferase KAT2A (Homo sapiens) (UniProt Q92830) (assay: qHTS Assay for Inhibitors of GCN5L2). Conditions: GCN5L2 HAT assay, ThioGlo1 CoA-SH fluorescence; activity change, negative = inhibition: at 58.9 µM (top of the series) unless noted.
In short: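 Titration-based screen in which CoA formation is detected via maleimide probe ThioGlo1 (50uM) turning fluorescent on thiol reaction; substrates H3(1-25) 75uM and acetyl-CoA 70uM, GCN5L2 20nM, 20 min incubation at room temperature.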
For N#Cc1nc(-c2ccccc2)oc1NCCN1CCCCC1, the Potency was inconclusive: 39.8 µM [inhibitor, single point].
Cc1ccc(OCc2cc(C(=O)N3CCCC(O)C3)no2)cn1 (stereo unspecified) was tested, and the Potency was inconclusive: 4.47 µM [inhibitor, single point].
CCOC(=O)C1=C(C)N=C2c3ccccc3C(=O)C2C1c1ccccc1 (stereo unspecified) was tested, and the “activity change, negative = inhibition” value was inactive: -6.35%.
For CN(C)c1ccc(-c2nc(N(C)Cc3ccco3)c3ccccc3n2)cc1, the Potency was inconclusive: 31.6 µM [inhibitor, partial curve].
CCn1nc(C)cc1C(=O)NC1CCCc2c1cnn2-c1cc(F)cc(F)c1 (stereo unspecified) was tested, and the “activity change, negative = inhibition” value was inactive: -2.58%.
COc1ccc(NC(=O)CN2CCN(C3c4ccccc4-c4ccccc43)CC2)c(OC)c1 was tested, and the “activity change, negative = inhibition” value was inactive: -3.06%.
For c1ccc(-c2cc3cc4c(cc3cn2)OCO4)cc1, the “activity change, negative = inhibition” value was inactive: -6.35%.
Cc1nnc(N2C(=O)c3ccc(Br)cc3C2=O)s1 was tested, and the Potency was inconclusive: 7.08 µM [inhibitor, single point].
For O=C(CCC(=O)Nc1ccccc1)N/N=C/c1ccncc1, the Potency was inconclusive: 39.8 µM [inhibitor, single point].
For COC(=O)c1cc(OC)c(OC)cc1NC(=O)Cc1ccccc1[N+](=O)[O-], the Potency was inconclusive: 0.708 µM [inhibitor, single point].
With CCCCN(CCCC)C(=S)N/N=C/c1c(C)[nH]n(-c2ccccc2)c1=O the Potency was inconclusive: 0.631 µM [inhibitor, single point].
For CCCCOC(=O)c1cccnc1, the Potency was inconclusive: 31.6 µM [inhibitor, single point].
With O=S(=O)(NCc1csc(-c2ccccc2)n1)c1ccccc1 the “activity change, negative = inhibition” value was inactive: 3.72%.
In the case of O=C(NC1CC1)C(=O)c1c[nH]c2ccccc12, the Potency is reported as inconclusive: 5.62 µM [inhibitor, full curve].
With Cc1cccc([C@@H]2[C@@H]3C(=O)N(Cc4ccccc4)C(=O)[C@@H]3[C@]3(CC(C)C)C(=O)N(c4cccc(Cl)c4)C(=O)N23)c1 the Potency was inconclusive: 0.794 µM [inhibitor, full curve, poor fit].
For [C-]#[N+]c1cc(-c2ccncc2)c(C)[nH]c1=O, the “activity change, negative = inhibition” value was inactive: -28.5%.
In the case of O=C(CSc1nnc2[nH]c(=O)cc(-c3ccccc3)n12)Nc1ccccc1C(F)(F)F, the Potency is reported as inconclusive: 39.8 µM [inhibitor, single point].
Oc1c(/C=C/C=C/C=Nc2ccccc2)sc(=S)n1Cc1ccccc1 was tested, and the Potency was inconclusive: 39.8 µM [inhibitor, single point].
O=C(CSc1nccn1-c1ccccc1)c1ccc(Br)cc1 was tested, and the Potency was inconclusive: 39.8 µM [inhibitor, single point].
In the case of O=C(Nc1nc(-c2cc3ccccc3oc2=O)cs1)c1ccco1, the Potency is reported as inconclusive: 1.26 µM [inhibitor, full curve, poor fit].
O=C(NCC(c1ccco1)N1CCc2ccccc2C1)C(=O)Nc1cc(F)ccc1F (stereo unspecified) was tested, and the Potency was inconclusive: 39.8 µM [inhibitor, single point].
In the case of COCCNC(=O)COc1cccc(Oc2ccccc2)c1, the Potency is reported as inconclusive: 22.4 µM [inhibitor, single point].
With C=CCn1c(-c2ccncc2)n[nH]c1=S the Potency was inconclusive: 8.91 µM [inhibitor, single point].
In the case of CCOc1ccc2[nH]c3c(NCCC(C)C)ncnc3c2c1, the Potency is reported as inconclusive: 25.1 µM [inhibitor, single point].
In the case of O=C(NN=C1CCCC1)c1ccc(Cl)cc1, the Potency is reported as inconclusive: 0.631 µM [inhibitor, single point].
For C=CCSc1nc2c(sc3nc(C)cc(C)c32)c(=O)[nH]1, the Potency was inconclusive: 6.31 µM [inhibitor, single point].
With COc1ccc(NC(=O)CCS(=O)(=O)c2ccc3c(c2)CCN3C(C)=O)cc1 the Potency was inconclusive: 10 µM [inhibitor, partial curve, poor fit].
O=C(c1cnn(C(=O)CN2CCCC2=O)c1)c1ccccc1O was tested, and the “activity change, negative = inhibition” value was inactive: -7.14%.
In the case of CCOCCn1c(CN2CCN(C)CC2)nc2c1c(=O)n(C)c(=O)n2C, the “activity change, negative = inhibition” value is reported as inactive: 0.111%.
For COc1ccc(S(=O)(=O)N2CCOC2CNC(=O)C(=O)NCc2ccc(F)cc2)cc1OC (stereo unspecified), the Potency was inconclusive: 5.62 µM [inhibitor, full curve].
CCN(CCCNC(=O)CN(C)S(=O)(=O)c1cccc2nsnc12)c1cccc(C)c1 was tested, and the Potency was inconclusive: 0.794 µM [inhibitor, single point].
O=C(Nc1ccc(F)cc1)c1ccc2c(=O)n3c(nc2c1)CCCCC3 was tested, and the Potency was inconclusive: 7.08 µM [inhibitor, single point].
For CCOC(=O)c1ccc(NC(=O)Cn2c(=O)cc(C)c3c(C)nn(-c4ccc(CC)cc4)c32)cc1, the “activity change, negative = inhibition” value was inactive: 0.0467%.
With c1ccc(-c2ccc(C3=Nn4c(Cn5nnc6ccccc65)nnc4SC3)cc2)cc1 the Potency was inconclusive: 10 µM [inhibitor, partial curve, poor fit].
In the case of CCC(=O)c1ccc(/C=C/c2nc3ccccc3n2C)o1, the Potency is reported as inconclusive: 25.1 µM [inhibitor, partial curve].
With CSCC[C@H](NC(=O)OC(C)(C)C)C(=O)N1CCC(C(=O)N[C@@H](Cc2c[nH]c3ccccc23)C(=O)O)CC1 the Potency was inconclusive: 7.08 µM [inhibitor, single point].
With COc1cccc(/C=C/c2nc(C#N)c(N3CCC(C(N)=O)CC3)o2)c1 the Potency was inconclusive: 31.6 µM [inhibitor, single point].
In the case of O=C(Cn1nnnc1-c1ccccc1F)Nc1ccc(OC(F)(F)F)cc1, the “activity change, negative = inhibition” value is reported as inactive: 1.16%.
For CCOc1ccc(OCC)c(S(=O)(=O)NCc2ccccn2)c1, the Potency was inconclusive: 7.08 µM [inhibitor, single point].
Cc1c(C=NCCOCc2ccccc2)cnn1C was tested, and the Potency was inconclusive: 31.6 µM [inhibitor, single point].
With Cn1cc(CNC(=O)C2c3ccccc3Oc3ccccc32)cn1 the Potency was inconclusive: 39.8 µM [inhibitor, single point].
With CCOc1ccc(C(=O)O/N=C(\N)c2ccccn2)cc1OCC the Potency was inconclusive: 25.1 µM [inhibitor, single point].
In the case of NS(=O)(=O)c1ccc(O)c(NC(=O)c2ccc([N+](=O)[O-])o2)c1, the Potency is reported as inconclusive: 20 µM [inhibitor, single point].
COc1ccc(/C=C2\SC(=S)N(CCCC(=O)Nc3ccc(C(=O)O)cc3)C2=O)cc1OC was tested, and the Potency was inconclusive: 3.98 µM [inhibitor, full curve].
In the case of CCOc1cccc(CN2CCCC(N3CCc4ccccc4C3)C2)c1O (stereo unspecified), the “activity change, negative = inhibition” value is reported as inactive: 0.526%.
With COCCCNC(=O)c1cc2c(-c3cccc(OC)c3)nn(C)c2s1 the Potency was inconclusive: 31.6 µM [inhibitor, single point].
For Nc1nc(-c2ccc([N+](=O)[O-])cc2)c(C(=O)Nc2ccc(Cl)cc2)s1, the Potency was inconclusive: 8.91 µM [inhibitor, single point].
For CCc1nnc(NC(=O)c2c(O)c3cccc4c3n(c2=O)CC4)s1, the “activity change, negative = inhibition” value was inactive: -3.11%.
In the case of c1ccc(CNc2ncnc3ccc(-c4ccoc4)cc23)cc1, the Potency is reported as inconclusive: 31.6 µM [inhibitor, partial curve].
In the case of Cc1nc2ccc(-c3nc4cc(N)ccc4o3)cc2[nH]1, the Potency is reported as inconclusive: 22.4 µM [inhibitor, partial curve, poor fit].
O=C(Cn1nc(-c2ccco2)ccc1=O)Nc1cc(C(F)(F)F)ccc1Cl was tested, and the “activity change, negative = inhibition” value was inactive: -10.7%.
In the case of CCOc1ccc(C2C(C(=O)c3ccc(C)o3)=C(O)C(=O)N2c2cc(C)on2)cc1OC (stereo unspecified), the “activity change, negative = inhibition” value is reported as inactive: -11.8%.
With C=CCc1ccc(OC)c(OC)c1 the Potency was inconclusive: 39.8 µM [inhibitor, single point].
In the case of COc1cc(C2C3=C(CC(c4ccco4)CC3=O)Nc3ccccc3N2C(C)=O)cc(OC)c1OC (stereo unspecified), the “activity change, negative = inhibition” value is reported as inactive: -4.08%.
CCOC(=O)c1c(C)oc2cc(Br)c(OC(=O)N3CCOCC3)cc12 was tested, and the Potency was inconclusive: 39.8 µM [inhibitor, single point].
With O=C(CN(Cc1ccccc1)C(=O)c1cccc([N+](=O)[O-])c1)Nc1c(Cl)cc(Cl)cc1Cl the “activity change, negative = inhibition” value was inactive: 0.24%.
CC1CCCN(C(=O)CCCn2c(=S)[nH]c3ccccc3c2=O)C1 (stereo unspecified) was tested, and the “activity change, negative = inhibition” value was inactive: 0%.
For O=C1CN(C(=O)COC(=O)c2ccccc2NCc2ccco2)c2ccccc2N1, the Potency was inconclusive: 31.6 µM [inhibitor, single point].
With CCOc1ccc(-n2cc(C(=O)N3CCC(C)CC3)c3cc(OC)c(OC)cc3c2=O)cc1 the Potency was inconclusive: 3.16 µM [inhibitor, single point].
CS(=O)(=O)N1CCC(c2noc(-c3ccc(C(F)(F)F)cc3)n2)CC1 was tested, and the “activity change, negative = inhibition” value was inactive: 1.08%.
For COc1ccc(C(=O)NCc2ccc3c(c2)CCN3C(C)=O)c(OC)c1, the “activity change, negative = inhibition” value was inactive: -6.65%.
For CC(C)(C)NC(=O)C(c1ccc(Cl)cc1)N(Cc1ccco1)C(=O)CCl (stereo unspecified), the “activity change, negative = inhibition” value was inactive: -0.837%.
For O=C(c1cc2ccccc2[nH]1)N(Cc1cccnc1)CC1CCCN(C2CCCCC2)C1 (stereo unspecified), the Potency was inconclusive: 0.126 µM [inhibitor, full curve, poor fit].
With CCn1c2ccccc2c2cc(NC(=O)c3cccc(OC)c3OC)ccc21 the Potency was inconclusive: 39.8 µM [inhibitor, single point].
With COc1ccc(C(C)=O)cc1COC(=O)CSCC(=O)Nc1ccc(C)cc1 the Potency was inconclusive: 22.4 µM [inhibitor, partial curve].
In the case of CC(=O)OCC(=O)Nc1ccccc1C, the “activity change, negative = inhibition” value is reported as inactive: 1.38%.
For O=C(N/N=C/c1ccc(N2CCOCC2)s1)c1ccccc1Cl, the “activity change, negative = inhibition” value was inactive: -12.9%.
In the case of O=C(c1ccccc1OCc1ccc(Cl)cc1)N1CCN(c2ccccn2)CC1, the “activity change, negative = inhibition” value is reported as inactive: -3.92%.
For COc1cccc(CNC(=O)N[C@@H](CC(C)C)C(=O)O)c1, the Potency was inconclusive: 28.2 µM [inhibitor, single point].
In the case of O=C1CC(N2CCCCCC2)C(=O)N1c1ccc2c(c1)OCO2 (stereo unspecified), the “activity change, negative = inhibition” value is reported as inactive: -14.8%.
With CC1CCN(C(=O)CSc2nnc(-c3cccnc3)o2)CC1 the Potency was inconclusive: 2.82 µM [inhibitor, partial curve].
